Measurements reported in patent US20210401931A1, “METHODS AND MATERIALS FOR TREATING CANCER” (Mayo Foundation for Medical Education and Research, priority 2018, published 2021).
These are yes or no findings as the source states them, for the method shown. For some assays here: In cells and extracts the contact can be indirect. Some entries that bind do so weakly or less than the wild type. For some assays here: Tags and fused reporters may be left off the sequences shown. Blank lines part the entries; values can stand above or below the molecule they belong to.

Protein sequences, listed by entry. Tags and fused reporters are not part of them. Lines headed by an entry give the natural chain unless they say otherwise; changes in a name come on top.
UniProt Q04206: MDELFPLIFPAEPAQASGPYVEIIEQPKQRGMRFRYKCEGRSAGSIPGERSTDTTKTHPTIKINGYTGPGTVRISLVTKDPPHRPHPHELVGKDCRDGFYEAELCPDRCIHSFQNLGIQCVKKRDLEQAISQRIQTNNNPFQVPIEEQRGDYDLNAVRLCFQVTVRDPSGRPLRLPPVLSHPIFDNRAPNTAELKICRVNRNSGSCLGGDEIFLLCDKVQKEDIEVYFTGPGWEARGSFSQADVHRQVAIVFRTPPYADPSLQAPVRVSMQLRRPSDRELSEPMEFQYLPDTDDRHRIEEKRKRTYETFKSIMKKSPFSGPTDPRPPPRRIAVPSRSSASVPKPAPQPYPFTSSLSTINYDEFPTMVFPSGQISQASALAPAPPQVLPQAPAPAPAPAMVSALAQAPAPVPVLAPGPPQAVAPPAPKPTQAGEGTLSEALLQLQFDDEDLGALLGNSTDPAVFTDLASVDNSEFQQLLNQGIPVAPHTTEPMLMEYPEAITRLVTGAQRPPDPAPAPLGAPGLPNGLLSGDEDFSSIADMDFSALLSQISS

Key:
[1] = molecular target: T1, retinoblastoma protein RB (endogenous) (human, UniProt P06400 2-928); assay: GST pull down from PC-3 whole cell lysate, western blot
T1 construct: Endogenous protein of cell lysates, phosphorylation state as in the cells; also called RB1; endogenous RB
T1 sequence (looked up): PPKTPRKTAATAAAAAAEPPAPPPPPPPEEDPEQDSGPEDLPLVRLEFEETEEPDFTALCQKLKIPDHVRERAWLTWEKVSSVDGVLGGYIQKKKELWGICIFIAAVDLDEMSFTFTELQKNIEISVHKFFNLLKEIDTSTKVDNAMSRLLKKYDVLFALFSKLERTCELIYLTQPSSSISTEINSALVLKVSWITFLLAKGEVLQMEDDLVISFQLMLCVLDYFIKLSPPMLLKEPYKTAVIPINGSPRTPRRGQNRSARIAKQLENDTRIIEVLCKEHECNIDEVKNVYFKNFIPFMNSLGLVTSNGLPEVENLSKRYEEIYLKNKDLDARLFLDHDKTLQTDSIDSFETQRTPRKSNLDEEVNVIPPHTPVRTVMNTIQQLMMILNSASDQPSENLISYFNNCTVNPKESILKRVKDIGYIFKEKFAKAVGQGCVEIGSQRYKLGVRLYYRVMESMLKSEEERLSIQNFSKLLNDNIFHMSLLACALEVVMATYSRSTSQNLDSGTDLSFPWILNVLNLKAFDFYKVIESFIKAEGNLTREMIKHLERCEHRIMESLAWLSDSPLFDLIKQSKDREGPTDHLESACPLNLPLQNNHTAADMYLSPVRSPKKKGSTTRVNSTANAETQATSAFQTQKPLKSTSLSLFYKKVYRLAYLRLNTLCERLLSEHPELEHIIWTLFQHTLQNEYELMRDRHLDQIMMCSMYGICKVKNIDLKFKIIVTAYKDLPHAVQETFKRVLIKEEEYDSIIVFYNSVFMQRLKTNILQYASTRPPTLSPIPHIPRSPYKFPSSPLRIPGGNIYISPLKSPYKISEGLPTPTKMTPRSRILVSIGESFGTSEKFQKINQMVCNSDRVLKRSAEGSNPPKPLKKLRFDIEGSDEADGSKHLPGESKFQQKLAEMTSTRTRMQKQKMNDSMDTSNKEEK

[2] = molecular target: T2, HA-RB wild-type (pCMV HA hRB-wt) (human) (UniProt P06400); assay: GST pull down of HA-RB from transfected PC-3 lysate (FIG. 3D)
T2 sequence (looked up): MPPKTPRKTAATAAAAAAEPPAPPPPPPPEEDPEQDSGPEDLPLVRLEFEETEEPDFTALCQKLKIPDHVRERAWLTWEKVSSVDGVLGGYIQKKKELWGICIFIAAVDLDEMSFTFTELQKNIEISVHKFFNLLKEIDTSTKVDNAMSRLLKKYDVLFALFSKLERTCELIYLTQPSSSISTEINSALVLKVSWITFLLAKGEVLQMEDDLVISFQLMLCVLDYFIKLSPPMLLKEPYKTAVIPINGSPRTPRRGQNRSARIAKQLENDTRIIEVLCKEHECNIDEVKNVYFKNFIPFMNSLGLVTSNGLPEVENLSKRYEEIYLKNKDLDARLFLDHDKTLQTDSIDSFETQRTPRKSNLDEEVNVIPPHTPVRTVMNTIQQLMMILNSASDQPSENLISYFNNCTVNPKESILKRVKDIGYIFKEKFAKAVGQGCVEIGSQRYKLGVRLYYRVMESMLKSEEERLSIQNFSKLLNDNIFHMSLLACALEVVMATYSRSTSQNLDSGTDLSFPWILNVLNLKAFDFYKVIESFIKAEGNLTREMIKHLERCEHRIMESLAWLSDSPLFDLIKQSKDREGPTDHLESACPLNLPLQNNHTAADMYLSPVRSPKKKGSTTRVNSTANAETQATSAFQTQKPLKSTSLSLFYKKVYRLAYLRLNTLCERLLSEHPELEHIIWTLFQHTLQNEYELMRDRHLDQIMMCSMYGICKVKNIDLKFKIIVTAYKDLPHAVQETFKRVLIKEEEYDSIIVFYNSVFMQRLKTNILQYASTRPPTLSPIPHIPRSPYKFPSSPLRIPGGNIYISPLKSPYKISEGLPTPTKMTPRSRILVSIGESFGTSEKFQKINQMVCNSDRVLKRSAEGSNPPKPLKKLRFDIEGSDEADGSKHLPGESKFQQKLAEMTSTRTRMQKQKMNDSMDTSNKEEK

[3] = molecular target: T1, retinoblastoma protein RB (endogenous); assay: GST pull down from PC-3 whole cell lysate, western blot (FIG. 2B)
[4] = molecular target: T3, RB-N expressed in transfected PC-3 cells (human) (UniProt P06400); assay: GST pull down from transfected PC-3 whole cell lysate (FIG. 15, lower panel)
T3 sequence (looked up): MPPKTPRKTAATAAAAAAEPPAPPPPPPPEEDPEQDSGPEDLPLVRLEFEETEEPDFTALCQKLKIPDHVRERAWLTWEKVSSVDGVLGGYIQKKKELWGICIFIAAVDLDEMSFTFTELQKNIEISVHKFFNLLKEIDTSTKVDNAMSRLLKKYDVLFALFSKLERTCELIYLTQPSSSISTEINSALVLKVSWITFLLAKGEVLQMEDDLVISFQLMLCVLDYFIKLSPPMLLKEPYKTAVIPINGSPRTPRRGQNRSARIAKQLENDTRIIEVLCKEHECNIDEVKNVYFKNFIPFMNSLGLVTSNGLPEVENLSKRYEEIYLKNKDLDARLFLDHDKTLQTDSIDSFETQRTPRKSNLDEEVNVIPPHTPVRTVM

GST-p65-N (human) [5] = molecular target: GST-p65-N (human) (UniProt Q04206); assay: in vitro protein binding assay (FIG. 10)
GST-p65-N (human) [6] = molecular target: GST-p65-N (human) (UniProt Q04206); assay: in vitro protein binding assay (FIG. 10F)
p65 NFκB protein [7] = molecular target: T4, p65 NFκB protein (human, UniProt Q04206 1-551); assay: co-IP from transfected 293T cells (FIG. 10E)
T4 construct: The same entry is used for endogenous p65 and for in vitro translated p65; which one stood in the assay is told under assay; also called endogenous p65; in vitro transcribed and translated p65 (pCMV4 p65)

p65 NFκB protein [8] = molecular target: T4, p65 NFκB protein; assay: co-IP from transfected cells (FIG. 10)
[9] = molecular target: T3, RB-N expressed in transfected PC-3 cells (human); assay: GST pull down from transfected PC-3 whole cell lysate (FIG. 19G, lower panel)

Molecule: GST-p65-N (from UniProt Q04206 1-306)
binding [1]: binds
binding [2]: binds
binding [3]: binds
binding [4]: binds

Molecule: NGAPRAPRRGQNRSARIAKQL (peptide, UniProt P06400 247-267, looked up) [in vitro transcribed and translated RL-S249A/T252A peptide]
binding (GST-p65-N (human) [5]): binds
binding (GST-p65-N (human) [6]): binds

B1: GST-EID1-N wild-type (protein, UniProt Q9Y6B2 1-177, looked up, not shown: a dimerising Fc or GST)
chain: MSEMAELSELYEESSDLQMDVMPGEGDLPQMEVGSGSRELSLRPSRSGAQQLEEEGPMEEEEAQPMAAPEGKRSLANGPNAGEQPGQVAGADFESEDEGEEFDDWEDDYDYPEEEQLSGAGYRVSAALEEADKMFLRTREPALDGGFQMHYEKTPFDQLAFIEELFSLMVVNRLTEE
binding [9]: binds

Other lines, results leading:

binding (p65 NFκB protein [7]): binds
binding (p65 NFκB protein [8]): binds
Molecule: NGDPRDPRRGQNRSARIAKQL (peptide, UniProt P06400 247-267, looked up, not shown: small tags and cut ends) [SFB-tagged RL-S249D/T252D peptide]

binding (GST-p65-N (human) [5]): binds
binding (GST-p65-N (human) [6]): binds
Molecule: NGDPRDPRRGQNRSARIAKQL (peptide, UniProt P06400 247-267, looked up) [in vitro transcribed and translated RL-S249D/T252D peptide]
